Our source for the binding values is article PMC1189073.

Residue numbers refer to the chain shown, from its start. No constants are given. Whether binding was seen depends on the method and setting. Binding seen in cells or lysates may run through a third protein. Some entries that bind do so weakly or less than the wild type. Tags and fused reporters may be left off the sequences shown.

The target of test [1] is T1, GFP tagged wild-type AQP2 (mouse) (UniProt P56402).
T1 sequence: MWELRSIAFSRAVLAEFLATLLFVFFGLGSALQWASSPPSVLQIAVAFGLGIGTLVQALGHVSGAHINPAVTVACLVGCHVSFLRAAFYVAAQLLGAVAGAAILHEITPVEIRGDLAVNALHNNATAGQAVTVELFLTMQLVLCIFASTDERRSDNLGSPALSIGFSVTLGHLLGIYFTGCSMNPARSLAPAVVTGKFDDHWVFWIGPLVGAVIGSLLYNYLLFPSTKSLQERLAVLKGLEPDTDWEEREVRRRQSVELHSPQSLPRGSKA
The test is described as follows: co-IP; MDCK cells stably expressing wild-type AQP2, transiently transfected with GFP constructs; membranes dissolved in 4% sodium deoxycholate (37 °C, 1 h), diluted, incubated overnight with GFP antisera and protein A/G sepharose; washed in RIPA buffer; blotted with an antibody against AQP2.

Test [2] deals with T2, GFP tagged AQP2-F204V (mouse) (UniProt P56402).
T2 sequence: T1 sequence with F204V
The test is described as above.

B1: wild-type AQP2 (mouse aquaporin-2) (protein, UniProt P56402 1-271)
chain: T1 sequence
As to B1, the binding entry in test [1] and in test [2] was “binds” in each case.
